From publication PMC10049986
Results are given in words; binding and its absence hold for the method and conditions named. Binding seen in cells or lysates may run through a third protein. These calls come from enrichment with a bait or labelling near it, and not all partners need be listed. Where a sequence is shown, tags or fusion partners need not be part of it.

The chains behind the UniProt entries cited, without tags or fusion partners.
UniProt Q9M2Z2: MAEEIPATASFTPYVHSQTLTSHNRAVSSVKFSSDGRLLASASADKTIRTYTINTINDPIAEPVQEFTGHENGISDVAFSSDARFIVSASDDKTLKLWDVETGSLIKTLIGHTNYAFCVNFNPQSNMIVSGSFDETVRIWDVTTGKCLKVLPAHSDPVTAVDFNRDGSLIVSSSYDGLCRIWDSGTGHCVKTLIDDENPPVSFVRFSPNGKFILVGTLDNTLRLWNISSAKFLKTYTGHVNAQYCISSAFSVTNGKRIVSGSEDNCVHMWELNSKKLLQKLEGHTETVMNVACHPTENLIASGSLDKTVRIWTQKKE

Experiments:
Test in all cases: affinity purification with mass spectrometry; native and formaldehyde cross-linked IP-MS from floral buds of FLAG-TRB1, 2 and 3 lines with Col-0 as control; anti-FLAG M2 magnetic beads, 4 °C, 2 h; eluted with 3X FLAG peptides; results of the two formats are told together
[1] = target: T1, pTRB:TRB-FLAG TRB1 (Telomere Repeat Binding factor 1 with 3xFLAG) (Arabidopsis thaliana) (UniProt Q8VWK4)
T1 sequence: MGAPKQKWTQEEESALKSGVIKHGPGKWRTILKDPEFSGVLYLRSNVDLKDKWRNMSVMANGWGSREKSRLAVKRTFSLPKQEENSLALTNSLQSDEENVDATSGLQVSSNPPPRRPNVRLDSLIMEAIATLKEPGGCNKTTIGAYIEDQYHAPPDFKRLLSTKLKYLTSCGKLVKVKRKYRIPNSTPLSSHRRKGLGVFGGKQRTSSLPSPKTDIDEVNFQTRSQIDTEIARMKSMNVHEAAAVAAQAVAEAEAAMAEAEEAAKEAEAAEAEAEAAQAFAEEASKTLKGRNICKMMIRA

[2] = target: T2, pTRB:TRB-FLAG TRB2 (Telomere Repeat Binding factor 2 with 3xFLAG) (Arabidopsis thaliana) (UniProt Q9FJW5)
T2 sequence: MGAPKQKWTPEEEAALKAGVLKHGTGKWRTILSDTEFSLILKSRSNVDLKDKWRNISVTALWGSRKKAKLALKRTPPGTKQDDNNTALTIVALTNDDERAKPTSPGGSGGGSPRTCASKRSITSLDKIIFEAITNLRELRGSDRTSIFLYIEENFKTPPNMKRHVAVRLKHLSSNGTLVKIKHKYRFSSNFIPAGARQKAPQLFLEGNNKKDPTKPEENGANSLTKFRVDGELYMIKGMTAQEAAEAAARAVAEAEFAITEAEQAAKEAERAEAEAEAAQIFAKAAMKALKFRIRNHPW

[3] = target: T3, pTRB:TRB-FLAG TRB3 (Telomere Repeat Binding factor 3 with 3xFLAG) (Arabidopsis thaliana) (UniProt Q9M2X3)
T3 sequence: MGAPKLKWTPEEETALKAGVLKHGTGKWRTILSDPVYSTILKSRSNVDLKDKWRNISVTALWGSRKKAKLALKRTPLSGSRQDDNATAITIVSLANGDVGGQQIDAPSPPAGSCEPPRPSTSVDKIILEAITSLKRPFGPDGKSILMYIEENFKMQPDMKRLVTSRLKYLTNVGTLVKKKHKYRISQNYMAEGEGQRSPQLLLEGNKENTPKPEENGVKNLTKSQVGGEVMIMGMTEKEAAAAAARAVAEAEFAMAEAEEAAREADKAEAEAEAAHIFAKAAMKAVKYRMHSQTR

Measured: binding

WDR5A protein, endogenous (from UniProt Q9M2Z2 1-317)
binds: all assays above
